Data on one sequence can be found in article PMC10417383, “DNA-Binding Activity of CAMTA3 Is Essential for Its Function: Identification of Critical Amino Acids for Its Transcriptional Activity”.

Weaker means in comparison with the reference protein, sequence or condition of that experiment. Where a protein sequence is shown, tags need not be part of it.

The series concerns the target T1, CAMTA3 CG-1 M5 W118A (Arabidopsis thaliana) (UniProt Q8GSA7).
T1 sequence (looked up): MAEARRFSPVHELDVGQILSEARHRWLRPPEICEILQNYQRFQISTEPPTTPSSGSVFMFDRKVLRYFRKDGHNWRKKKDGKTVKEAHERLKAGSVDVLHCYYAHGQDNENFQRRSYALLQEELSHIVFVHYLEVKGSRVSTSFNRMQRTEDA
Briefly: EMSA. To be noted: complex detected only from 100 ng protein (WT 25 ng), reduced by unlabeled PDF1.4 competitor; 1X LightShift EMSA binding buffer, 50 ng/ul poly(dI-dC), 20 fmol probe in 20 ul, +/- 4 pmol unlabeled DNA, room temperature 30 min; 5% native PAGE, 0.5X TBE; recombinant protein; residues 1-153; protein details: His (pET28a); label: 3'-biotin on strand 1. (In EMSA bound probe runs differently from free probe, usually more slowly.)

Turning to “CGTGAAAGTCACGCGCCAAGAACAAA (double strand) [PDF1.4 promoter probe]”, the binding result is given as “binds more weakly”.
